Measurements from paper PMC3591265.
These are yes or no findings as the source states them, for the method shown. Binding seen in cells or lysates may run through a third protein. These calls come from enrichment with a bait or labelling near it, and not all partners need be listed. No binding means not detected with the bait. Sequences can lack the tags named with a protein.

The chains behind the UniProt entries cited, without tags or fusion partners. Where a name states a change or a piece, a line headed by the entry shows the natural chain unless it says otherwise.
UniProt Q69KN0: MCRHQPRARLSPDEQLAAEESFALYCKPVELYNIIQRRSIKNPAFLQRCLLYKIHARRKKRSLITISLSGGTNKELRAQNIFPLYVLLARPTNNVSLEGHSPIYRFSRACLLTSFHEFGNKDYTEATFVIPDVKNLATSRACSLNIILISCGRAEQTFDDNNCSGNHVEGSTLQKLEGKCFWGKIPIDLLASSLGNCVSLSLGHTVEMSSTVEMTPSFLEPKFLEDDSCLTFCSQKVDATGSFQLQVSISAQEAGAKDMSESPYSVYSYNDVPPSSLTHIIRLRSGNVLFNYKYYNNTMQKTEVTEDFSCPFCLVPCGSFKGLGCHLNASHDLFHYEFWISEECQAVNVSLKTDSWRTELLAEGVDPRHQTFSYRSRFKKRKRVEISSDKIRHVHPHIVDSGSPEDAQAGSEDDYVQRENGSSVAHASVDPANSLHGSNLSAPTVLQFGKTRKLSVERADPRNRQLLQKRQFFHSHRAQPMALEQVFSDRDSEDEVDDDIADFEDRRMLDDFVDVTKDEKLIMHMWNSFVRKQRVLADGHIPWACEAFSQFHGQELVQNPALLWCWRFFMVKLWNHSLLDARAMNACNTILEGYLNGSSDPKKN
UniProt O64937: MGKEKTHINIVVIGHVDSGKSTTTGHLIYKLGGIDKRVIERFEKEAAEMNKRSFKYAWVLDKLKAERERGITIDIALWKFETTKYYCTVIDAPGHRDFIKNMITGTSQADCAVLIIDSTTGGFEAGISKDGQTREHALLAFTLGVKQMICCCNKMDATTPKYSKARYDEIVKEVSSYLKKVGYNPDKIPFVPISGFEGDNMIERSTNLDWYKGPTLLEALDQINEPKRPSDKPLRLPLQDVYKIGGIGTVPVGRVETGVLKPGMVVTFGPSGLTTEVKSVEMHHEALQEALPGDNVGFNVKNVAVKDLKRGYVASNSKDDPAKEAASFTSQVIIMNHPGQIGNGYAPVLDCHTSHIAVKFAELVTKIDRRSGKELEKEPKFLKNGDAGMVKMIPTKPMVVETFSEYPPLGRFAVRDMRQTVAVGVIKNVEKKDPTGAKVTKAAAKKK

T1: N-terminal TAP-tagged OsFIE2 (Oryza sativa) (UniProt Q6ZJX0)
T1 sequence: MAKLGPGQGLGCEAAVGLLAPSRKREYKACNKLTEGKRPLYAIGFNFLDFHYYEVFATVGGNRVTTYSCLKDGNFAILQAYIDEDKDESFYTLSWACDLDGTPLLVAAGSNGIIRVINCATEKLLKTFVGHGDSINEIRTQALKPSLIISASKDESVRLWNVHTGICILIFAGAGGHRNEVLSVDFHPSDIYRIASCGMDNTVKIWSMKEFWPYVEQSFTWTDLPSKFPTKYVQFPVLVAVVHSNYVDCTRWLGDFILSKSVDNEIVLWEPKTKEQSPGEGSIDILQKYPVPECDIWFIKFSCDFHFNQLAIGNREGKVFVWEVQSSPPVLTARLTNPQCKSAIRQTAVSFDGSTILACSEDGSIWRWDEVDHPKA

B1: OsSET1 (protein, UniProt Q10MI4 1-895)
chain: MASSSSKASDSSSQRPKRPDQGPSGKDAAGLVALHGKLAQLKRQVQSTRLAAIKERVEANRKALQVHTCALFDVAAAAEVASRGAEGGNALSRGAAEGHRRFVGWDSASGPGERELVHVQEENLVAGTLVLSSSGGSGASHRTVVQLVKLPVVDKIPPYTTWIFLDKNQRMADDQSVGRRRIYYDPIVNEALICSESDDDVPEPEEEKHVFTEGEDQLIWKATQDHGLSREVLNVLCQFVDATPSEIEERSEVLFEKYEKQSQSSYKTDLQLFLDKTMDVALDSFDNLFCRRCLVFDCRLHGCSQNLVFPSEKQPYGHELDENKRPCGDQCYLRRREVYQDTCNDDRNACTTYNMDSRSSSLKVSATILSESEDSNRDEDNIKSTSIVETSRSKITNSEYADKSVTPPPGDASETENVSPDMPLRTLGRRKISKHASKSNDHSPDKRQKIYSSPFPFAMSVLNKQSVPEIGETCPDSIESAVDQLPSLDDPNKKISTKDMCAGSTTNTTENTLRDNNNNLFISNKEHSISHWSALERDLYLKGIEIFGKNSCLIARNLLSGLKTCMEVASYMYNNGAAMAKRPLSGKSILGDFAEAEQGYMEQDLVARTRICRRKGRARKLKYTWKSAGHPTVRKRIGDGKQWYTQYNPCGCQQMCGKDCACVENGTCCEKYCGCSKSCKNRFRGCHCAKSQCRSRQCPCFAASRECDPDVCRNCWVSCGDGSLGEPLARGDGYQCGNMKLLLKQQQRILLGKSDVAGWGAFIKNPVNRNDYLGEYTGELISHREADKRGKIYDRANSSFLFDLNEQYVLDAYRKGDKLKFANHSSNPNCYAKVMLVAGDHRVGIYAKDRIEASEELFYDYRYGPDQAPAWARRPEGSKKDEASVSHHRAHKVAR

The molecules below were run against T1, N-terminal TAP-tagged OsFIE2 (Oryza sativa) (assay: affinity purification with mass spectrometry; tandem affinity purification of N-terminal TAP-tagged OsFIE2 from rice cell suspension culture extract: IgG sepharose 1 h at 4°C, AcTEV elution, calmodulin-agarose 1 h at 4°C, EGTA elution; 150 mM NaCl, 0.1% IGEPAL, pH 8.0; LC-MS/MS of the eluate).
OsEMF2b (from UniProt Q69KN0) was tested, and the binding was “binds”. “elongation factor 1-alpha (from UniProt O64937 1-447)” was tested, and the binding was “no binding”. For B1, the binding was “binds”.
